From patent US11510852B2 (THE ROYAL INSTITUTION FOR THE ADVANCEMENT OF …, priority 2019, dated 2022)

Assay: Two-step staining procedure, visual shade assessment of composite resin
Conditions: molecule used for first priming step before adding Philoxine B and Brilliant Blue

Compound | visual change in shade of composite resin
CCOC(=O)CC(C)C [Ethyl Isovalerate, ethyl isovalerate] | no changes were observed
CCOC(=O)C(C)O (centres unmarked) [Ethyl Lactate, ethyl lactate] | no changes were observed
